Values from PubChem BioAssay AID504774 (Drosophila RNAi Screening Center, 2011)

Assay: 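Genes required for cells to withstand methyl methanesulphonate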 (primary screen)
System: Drosophila Kc167 cells
Knock-down reagent: long dsRNA against Drosophila genes, about 0.25 µg dsRNA per well
Duration: about 6 days: 3 days knock-down, then 3 days with or without MMS
Treatment: methyl methanesulphonate 0.004% (w/v) for 3 days after knock-down
Detection: 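Viability in wells given MMS, read as ATP luminescence, normalised by quantiles plate by plate and averaged across replicates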
Scale: mean viability with MMS and viability with MMS: higher = more surviving cells after MMS
In all, the deposit lists about 23,000 reagents; below is a random part of those with a known target gene and a result. 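Values are quantile-normalised luminescence on an arbitrary scale; higher means more cells surviving MMS.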 The numbers tell different reagents against one gene apart. A plus sign joins genes that one reagent is predicted to hit. Reagent sequences are not shown.

| target | reagent no. | mean viability with MMS | viability with MMS, replicate 1 | viability with MMS, replicate 2 |
| --- | --- | --- | --- | --- |
| fidipidine | 1 | 3.62e6 | 4.01e6 | 4.18e6 |
| Pstk + Tim9b | 1 | 3.52e6 | 4.07e6 | 3.90e6 |
| Pstk + Tim9b | 2 | 3.48e6 | 3.88e6 | 4.04e6 |
| CG13926 | 1 | 3.51e6 | 4.04e6 | 3.91e6 |
| CG42306 + Gint3 | 1 | 3.34e6 | 3.82e6 | 3.79e6 |
| CG8379 | 1 | 3.33e6 | 3.81e6 | 3.81e6 |
| CG33127 | 1 | 3.68e6 | 4.27e6 | 4.06e6 |
| CG18404 | 1 | 3.68e6 | 4.06e6 | 4.28e6 |
| CG11298 | 1 | 3.24e6 | 3.70e6 | 3.53e6 |
| mRNA-cap | 1 | 3.23e6 | 3.59e6 | 3.59e6 |
| CG33099 | 1 | 3.61e6 | 4.14e6 | 4.01e6 |
| Vps25 | 1 | 3.37e6 | 3.81e6 | 3.82e6 |
| Arfip | 1 | 3.47e6 | 3.89e6 | 3.95e6 |
| Jhbp5 | 1 | 3.65e6 | 4.12e6 | 4.19e6 |
| Gs1 | 1 | 3.29e6 | 3.25e6 | 4.06e6 |
| CG4768 | 1 | 3.80e6 | 3.65e6 | 3.69e6 |
| CG5612 | 1 | 3.41e6 | 3.89e6 | 3.77e6 |
| Frl | 1 | 3.56e6 | 3.99e6 | 4.08e6 |
| Frl | 2 | 3.49e6 | 3.96e6 | 3.94e6 |
| Frl | 3 | 3.44e6 | 3.87e6 | 3.74e6 |
| ear | 1 | 3.45e6 | 3.84e6 | 3.96e6 |
| qkr54B | 1 | 3.71e6 | 4.07e6 | 4.29e6 |
| Pink1 | 1 | 3.50e6 | 4.02e6 | 3.81e6 |
| CG14811 | 1 | 3.68e6 | 4.16e6 | 4.18e6 |
| Nepl3 | 1 | 3.49e6 | 4.09e6 | 3.77e6 |
| Rep | 1 | 3.63e6 | 4.14e6 | 4.11e6 |
| Mnn1 | 1 | 3.77e6 | 4.15e6 | 4.24e6 |
| RhoGEF4 | 1 | 3.66e6 | 3.97e6 | 4.34e6 |

Not a retest: entries from further up.
| target | reagent no. | mean viability with MMS | viability with MMS, replicate 1 | viability with MMS, replicate 2 |
| --- | --- | --- | --- | --- |
| mRNA-cap | 1 | 3.23e6 | 3.59e6 | 3.59e6 |
| CG33099 | 1 | 3.61e6 | 4.14e6 | 4.01e6 |
